## Primary screen of a compound library

Measurements from “University of Dundee, Small-Polar-MMV Screening Library” (2021), ChEMBL document CHEMBL3988442.

Values are the deposited “Percent Effect”, in %.
The record does not define 0% and 100%; most values in the screen are far below 50% and negative numbers occur (in some assays of this library far below -100).
This is an unselected part of the compounds tested.

Mtb glucose medium: 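Growth of Mycobacterium tuberculosis over 3 days (7H9 medium with glucose and tyloxapol); the read-out is not stated. Concentration: 500 µM. The record gives no direction; compounds that gave an IC50 in retests scored well above the rest, so higher reads as more growth inhibition. Of about 18,000 compounds tested this way, about 1,400 (7.9%) reached 50% or more in at least one test.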
Mtb cholesterol medium: 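Phenotypic screen: M. tuberculosis growth, cholesterol and DPPC medium, 4 days; the read-out is not stated. Tested at 500 µM. The record gives no direction; compounds that gave an IC50 in retests scored well above the rest, so higher reads as more growth inhibition. Of about 18,000 compounds tested this way, about 900 (5%) reached 50% or more in at least one test.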

| # | SMILES | Mtb glucose medium | Mtb cholesterol medium |
|---|---|---|---|
| 1 | `NCc1cc(Cl)ccc1N1CCOCC1` | 0.8172 | -7.478 |
| 2 | `CCN(CC)C(=O)C1CCCN(Cc2ccco2)C1` (centres undefined) | -4.836 | 1.816 |
| 3 | `CCC1CCC(=O)N1` (centres undefined) | -3.817 | -15.98 |
| 4 | `O=C(CCOCC(F)(F)F)NCCNc1ccccc1` | 41.03 | 26.66 |
| 5 | `Cc1cccc(OCCc2noc(C3CNC3)n2)c1` | 106.7 | 114.8 |
| 6 | `CN1C(=O)C[C@@H](N)[C@@H]1c1ccnn1C` | 5.464 | -1.987 |
| 7 | `COc1cc(N2CCNCC2)cc(OC)c1OC` | 30.42 | 12.07 |
| 8 | `CN1CCC(N(C)C(=O)Cc2cccc(F)c2)CC1` | 3.024 | -7.458 |
| 9 | `Cc1[nH]cnc1CN1CCCN(S(C)(=O)=O)CC1` | -9.019 | -6.439 |
| 10 | `COCCS(=O)(=O)Cc1cnn(-c2ccccc2)c1` | 37.69 | 28.48 |
| 11 | `CC(=O)Nc1cccc(COC(C)=O)c1` | -13.28 | -18.73 |
| 12 | `CCN1CCCC1CNC(=O)c1cncc(Br)c1` (centres undefined) | 15.95 | 0.7205 |
| 13 | `COC(=O)C(C)(CNC(C)=O)c1ccccc1` (centres undefined) | 12.93 | -0.6342 |
| 14 | `Cc1ccnc(NC(=O)N2CCCC(CO)C2)c1` (centres undefined) | 17.51 | 6.66 |
| 15 | `O=C(CSCC(=O)NC1CC1)Nc1ccccc1` | -1.981 | -2.417 |
| 16 | `Brc1cncc(C2CCCN2)c1` (centres undefined) | 17.43 | 23.91 |
| 17 | `Cc1cccc(C(=O)Nc2ncc(C)s2)n1` | -14.58 | -39.98 |
| 18 | `NC1CCCN(Cc2ccccc2)C1=O` (centres undefined) | 37.36 | 6.899 |
| 19 | `CNC(=O)C(C)Sc1nccn1-c1ccc(OC)cc1` (centres undefined) | 23.32 | 12.25 |
| 20 | `CC(O)CN1CCN(C(=O)CN(C)S(C)(=O)=O)CC1` (centres undefined) | 2.363 | 33.88 |
| 21 | `Cc1nc[nH]c1CN1CCCOC(CN2CCCC2)C1` (centres undefined) | -9.019 | -20.33 |
| 22 | `O=C(COCC(F)(F)F)NCCn1ccnc1` | -18.18 | -2.862 |
| 23 | `Cc1ccnc(Oc2cccc(C(=O)NCCO)c2)n1` | 9.845 | 12.87 |
| 24 | `CC(Cn1cncn1)NC(=O)Cc1c(F)cccc1Cl` (centres undefined) | 2.035 | -8.427 |
| 25 | `Cc1noc(CN2CCC(NC(=O)C(C)C)CC2)n1` | -5.851 | -11.47 |
| 26 | `CC(O)CC(C)(C)CN` (centres undefined) | 0.6126 | 10.82 |
| 27 | `NC[C@H]1C[C@@H]1c1ccccc1` | 5.792 | -6.954 |
| 28 | `CN(C)c1ccc(NC(=O)N2CCSCC2)cn1` | -22.97 | -16.36 |
| 29 | `COCCNC(=O)CN(C)c1ccc(Br)cc1C#N` | -2.626 | -12.21 |
| 30 | `NS(=O)(=O)c1ccccc1CNC(=O)C1CCCCO1` (centres undefined) | 17.25 | 9.335 |
| 31 | `OC1(c2cccc3ccccc23)CNC1` | 20.51 | 3.945 |
| 32 | `NCc1cc(N[C@H](CO)CC2CCCCC2)ncn1` | 63.43 | 43.71 |
| 33 | `CNC(=O)COC(=O)Cc1ccc(Br)cc1` | 52.51 | 17.06 |
| 34 | `CC(NC(=O)c1ccc(Cl)c(I)c1)C(=O)N(C)C` (centres undefined) | 50.43 | 34.38 |
| 35 | `O=C(CN1CCCC1c1ccccc1)N1CCNC1=O` (centres undefined) | -11.28 | -6.528 |
| 36 | `O=C1CCOc2c(F)ccc(F)c21` | -5.56 | -15.32 |
| 37 | `Cc1nocc1CN` | 4.518 | -0.8503 |
| 38 | `O=C(CSc1cnn[nH]1)OCc1ccccc1` | 53.48 | 18.08 |
| 39 | `CCNC1CCOC(C)(C)C1` (centres undefined) | -7.017 | -17.43 |
| 40 | `CCc1ncnc(N2CC(NC(=O)NC)C2)c1F` | 7.419 | -7.148 |
| 41 | `Cc1csc(CN(C)C(=O)COCC2CCCCO2)n1` (centres undefined) | 26.69 | 11.67 |
| 42 | `CC(=O)NC1CCN(c2ncccc2C#N)CC1` | 5.531 | -11.08 |
| 43 | `CC(C)(C)c1n[nH]cc1CNCCNS(C)(=O)=O` | 24.85 | 25.76 |
| 44 | `CNC1CCN(C(=O)c2ccsc2)CC1` | -7.028 | -13.94 |
| 45 | `CC(C)n1ccnc1CN1CC2(CCOC2)CCC1=O` (centres undefined) | 4.065 | 5.954 |
| 46 | `Cc1cc(C)cc(OCC(=O)N2CCNCC2)c1` | 41.4 | 16.7 |
| 47 | `CNS(=O)(=O)c1ccc(C(=O)NC(C)C#N)cc1` (centres undefined) | 11.57 | 4.228 |
| 48 | `CN(C)Cc1ccccc1CNC(=O)C1CCC1` | -7.221 | -2.857 |
| 49 | `CCc1ccccc1N1CC(C(=O)NC)CC1=O` (centres undefined) | 6.241 | -1.836 |
| 50 | `O=C(NCC(O)CO)Nc1ccc(F)cc1C(F)(F)F` (centres undefined) | 9.092 | 5.6 |
| 51 | `CN(CC(N)=O)C(=O)c1csc(-c2ccc(F)cc2)n1` | -6.58 | -9.434 |
| 52 | `CC(=O)NC(C(=O)Nc1ccc(Br)cn1)C1CCCC1` (centres undefined) | 0.8375 | -11.02 |
| 53 | `Cc1cc2cccc(C(=O)NCCOCCO)c2o1` | -6.827 | -5.676 |
| 54 | `CC(C)CCN1CCC(CNC(=O)NCCO)CC1` | 2.473 | -2.201 |
| 55 | `Cc1noc(C)c1COC1CCNC1` (centres undefined) | -12.73 | -41.54 |
| 56 | `CC1(C)CN(C(=O)c2cc(C3CC3)on2)CCO1` | 34.83 | 26.2 |
| 57 | `O=C(Nc1cc(Cl)ccc1F)C1=COCCO1` | 68.53 | 71.69 |

For reference, 5 entries once more:

{"smiles": "CNC1CCN(C(=O)c2ccsc2)CC1", "Mtb glucose medium": -7.028, "Mtb cholesterol medium": -13.94}
{"smiles": "Cc1cc2cccc(C(=O)NCCOCCO)c2o1", "Mtb glucose medium": -6.827, "Mtb cholesterol medium": -5.676}
{"smiles": "CC(NC(=O)c1ccc(Cl)c(I)c1)C(=O)N(C)C", "stereo": "centres undefined", "Mtb glucose medium": 50.43, "Mtb cholesterol medium": 34.38}
{"smiles": "CC(O)CC(C)(C)CN", "stereo": "centres undefined", "Mtb glucose medium": 0.6126, "Mtb cholesterol medium": 10.82}
{"smiles": "COCCNC(=O)CN(C)c1ccc(Br)cc1C#N", "Mtb glucose medium": -2.626, "Mtb cholesterol medium": -12.21}